Data as given in PubChem BioAssay AID1224826 (NIAID, 2016).
This is an unselected part of about 17,000 reagents. Over the whole deposit, about 1,110 (6.6%) are marked active. 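Active means lowered or raised reporter signal; replicate intensities are raw and not normalised per plate.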 Not all columns of the deposit are shown.

Aim: 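Regulators of Tlr4 signalling leading to Tnf-alpha expression in macrophages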 (primary screen)
Cells: RAW264.7 G9 macrophages from mouse bearing reporters for p65 (GFP) and the Tnf promoter (mCherry)
Reagents: siRNA pool against mouse genes, 100 nM
Duration: 16 h of LPS stimulation, after 2 days of siRNA transfection
Treatment: bacterial lipopolysaccharide (Salmonella minnesota R595), 10 ng/ml
Detection: 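Imaged Tnf reporter mCherry in nuclei, minus background, normalised per plate to the median and expressed as robust z-scores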
Direction: Tnf reporter robust z-score: higher = stronger Tnf promoter reporter signal after LPS
Hit rule: 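Called active when robust z-score is at most -1.3, matching the median of the Tlr4 knock-down control, or over 3; control wells and wells with under 50 cells never active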
Meaning of the calls: active = Tnf reporter clearly lowered or raised; inactive = no clear change in Tnf reporter

Or2y1b: Tnf reporter robust z-score = 2.97; fewer than 50 cells in well = enough cells in well; Outcome = inactive
Akt3: fewer than 50 cells in well = fewer than 50 cells per well; well left out of calls; Outcome = inactive
Nalcn: Tnf reporter robust z-score = 1.44; fewer than 50 cells in well = enough cells in well; Outcome = inactive
Ap5m1: fewer than 50 cells in well = fewer than 50 cells per well; well left out of calls; Outcome = inactive
Qrfp: Tnf reporter robust z-score = -0.33; fewer than 50 cells in well = enough cells in well; Outcome = inactive
Riok2: Tnf reporter robust z-score = -0.14; fewer than 50 cells in well = enough cells in well; Outcome = inactive

Next part, starting with the last 2 of the part before.
Qrfp: Tnf reporter robust z-score = -0.33; fewer than 50 cells in well = enough cells in well; Outcome = inactive
Riok2: Tnf reporter robust z-score = -0.14; fewer than 50 cells in well = enough cells in well; Outcome = inactive
Il1rapl2: Tnf reporter robust z-score = -0.4; fewer than 50 cells in well = enough cells in well; Outcome = inactive
Smad4: Tnf reporter robust z-score = -0.67; fewer than 50 cells in well = enough cells in well; Outcome = inactive
Crebzf: Tnf reporter robust z-score = 0.7; fewer than 50 cells in well = enough cells in well; Outcome = inactive
Sycp3: Tnf reporter robust z-score = 2.27; fewer than 50 cells in well = enough cells in well; Outcome = inactive
Ebi3: Tnf reporter robust z-score = -1.02; fewer than 50 cells in well = enough cells in well; Outcome = inactive
Or52e3: Tnf reporter robust z-score = -1.24; fewer than 50 cells in well = enough cells in well; Outcome = inactive
Prkcq: Tnf reporter robust z-score = 1.08; fewer than 50 cells in well = enough cells in well; Outcome = inactive
Rdh11: Tnf reporter robust z-score = -1.31; fewer than 50 cells in well = enough cells in well; Outcome = active
